This passage reports binding results from article doi:10.1101/280214.

The target of one experiment is T1, GFP::MSH-5 (C. elegans) (UniProt Q19272).
T1 sequence: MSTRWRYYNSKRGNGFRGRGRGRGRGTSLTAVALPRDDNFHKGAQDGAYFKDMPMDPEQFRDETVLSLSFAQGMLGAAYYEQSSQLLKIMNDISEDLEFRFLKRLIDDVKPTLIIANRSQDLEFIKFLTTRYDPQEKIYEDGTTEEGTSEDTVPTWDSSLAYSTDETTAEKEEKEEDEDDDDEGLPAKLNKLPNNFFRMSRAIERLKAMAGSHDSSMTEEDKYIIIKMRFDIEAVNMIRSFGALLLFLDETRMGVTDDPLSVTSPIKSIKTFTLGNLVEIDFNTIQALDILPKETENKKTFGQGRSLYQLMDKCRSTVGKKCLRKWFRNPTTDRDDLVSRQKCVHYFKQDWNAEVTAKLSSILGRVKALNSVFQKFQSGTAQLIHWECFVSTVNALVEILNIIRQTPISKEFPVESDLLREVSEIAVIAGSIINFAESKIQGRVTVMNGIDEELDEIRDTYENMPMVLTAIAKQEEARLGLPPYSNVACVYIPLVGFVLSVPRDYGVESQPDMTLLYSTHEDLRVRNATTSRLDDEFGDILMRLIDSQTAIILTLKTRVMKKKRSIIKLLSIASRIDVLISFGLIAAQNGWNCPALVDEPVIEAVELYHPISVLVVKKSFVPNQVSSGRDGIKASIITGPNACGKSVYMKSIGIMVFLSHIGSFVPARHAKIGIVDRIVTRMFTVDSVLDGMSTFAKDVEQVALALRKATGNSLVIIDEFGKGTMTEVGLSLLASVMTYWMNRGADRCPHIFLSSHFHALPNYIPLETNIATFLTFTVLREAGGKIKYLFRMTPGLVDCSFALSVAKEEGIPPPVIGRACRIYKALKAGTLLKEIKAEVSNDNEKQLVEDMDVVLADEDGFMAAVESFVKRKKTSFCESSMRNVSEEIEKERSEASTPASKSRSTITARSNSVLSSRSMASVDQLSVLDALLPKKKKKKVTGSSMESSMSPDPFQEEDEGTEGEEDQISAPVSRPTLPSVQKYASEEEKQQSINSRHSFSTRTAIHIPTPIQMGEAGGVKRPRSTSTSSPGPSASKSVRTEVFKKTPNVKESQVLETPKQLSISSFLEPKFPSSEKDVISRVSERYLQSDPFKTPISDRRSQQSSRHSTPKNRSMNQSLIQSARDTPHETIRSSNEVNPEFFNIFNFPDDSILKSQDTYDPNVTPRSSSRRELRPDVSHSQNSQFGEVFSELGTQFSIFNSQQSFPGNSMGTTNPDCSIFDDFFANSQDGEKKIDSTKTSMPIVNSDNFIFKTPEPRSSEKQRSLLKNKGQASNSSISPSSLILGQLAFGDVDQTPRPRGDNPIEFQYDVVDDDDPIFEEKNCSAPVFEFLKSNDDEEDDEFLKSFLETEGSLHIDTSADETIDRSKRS
The experiment in a line: co-IP.

The target of another experiment is T2, GFP::SYP-3 (C. elegans) (UniProt O62238).
T2 sequence: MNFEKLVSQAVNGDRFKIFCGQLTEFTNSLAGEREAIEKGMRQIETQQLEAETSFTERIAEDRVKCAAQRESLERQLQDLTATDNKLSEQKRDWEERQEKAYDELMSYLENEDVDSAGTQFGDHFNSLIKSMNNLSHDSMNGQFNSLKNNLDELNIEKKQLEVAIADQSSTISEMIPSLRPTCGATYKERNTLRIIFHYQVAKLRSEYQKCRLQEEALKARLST
In words: co-IP.

These are yes or no findings as the source states them, for the method shown. In cells and extracts the contact can be indirect. Some entries that bind do so weakly or less than the wild type. Sequences can lack the tags named with a protein.

B1: BRC-1::HA (protein, UniProt B6VQ60 1-609)
chain: MADVALRITETVARLQKELKCGICCSTYKDPILSTCFHIFCRSCINACFERKRKVQCPICRSVLDKRSCRDTYQITMAVQNYLKLSEAFKKDIENMNTFKSLPPEKMFMESQMPLDITIIPENDGKRCAPDFAIPFLPVRRKRPSRPQPPSAFAEEPAEPVEPPEPATKQPVELQSRVFPLEKLKKDVETSTETYKISREELKNVDIEEYINTLRENSTEIDEIDALFQLMPTMRQFLRNNINQLMEKFHVAPPKKSEKPANRRVSFASSQDLENIKIMTASESLETPPEPIQKLAQKPEVFKSTQNLIDLNLNTAVKKPVVVASDDDEVVEDSEGELQIDEDDLANVTCATSSTTLDADRTPKAIQDDEDRIDDELSQVPKTIVCSRIHNDADEVELLSDFYHKFLSNACRFAEDVNEHTTHLVMMNSEGRSISQKSTAYLYAIARKCVIVGRQWLVDCITTGLLLSEADYTITSCSSTIPVKIPPSIGSEMGWLRSRNDEHGKLFAGRRFMILRKFTMNPYFDYKQLIELVQQCGGEILSCYENLSPEKLYIIFSKHSKAIEESKNIENLYKCDVVTMEWVLDSISEYLILPTQPYKAVDSIGCLQD
Take B1: the binding entry with GFP::MSH-5 (C. elegans) and in the experiment with GFP::SYP-3 (C. elegans) was “binds” in each case.
